Test results published in the supplement of paper PMC10849652.
Some of the results follow.

Sequences of proteins named here, by UniProt entry; tags and fusion partners are left off. A change or cut given only in a name is not applied to a line headed by its entry.
UniProt Q96A47: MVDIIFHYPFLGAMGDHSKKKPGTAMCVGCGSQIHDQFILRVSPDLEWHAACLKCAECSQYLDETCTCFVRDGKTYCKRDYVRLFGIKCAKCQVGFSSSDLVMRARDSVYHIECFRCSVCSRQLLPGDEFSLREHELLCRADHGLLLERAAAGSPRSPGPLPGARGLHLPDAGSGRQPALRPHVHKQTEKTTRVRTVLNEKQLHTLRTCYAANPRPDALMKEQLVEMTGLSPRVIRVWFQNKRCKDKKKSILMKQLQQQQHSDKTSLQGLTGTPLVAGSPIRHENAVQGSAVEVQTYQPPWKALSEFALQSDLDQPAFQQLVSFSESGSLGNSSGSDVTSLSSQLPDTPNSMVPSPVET
UniProt Q06033: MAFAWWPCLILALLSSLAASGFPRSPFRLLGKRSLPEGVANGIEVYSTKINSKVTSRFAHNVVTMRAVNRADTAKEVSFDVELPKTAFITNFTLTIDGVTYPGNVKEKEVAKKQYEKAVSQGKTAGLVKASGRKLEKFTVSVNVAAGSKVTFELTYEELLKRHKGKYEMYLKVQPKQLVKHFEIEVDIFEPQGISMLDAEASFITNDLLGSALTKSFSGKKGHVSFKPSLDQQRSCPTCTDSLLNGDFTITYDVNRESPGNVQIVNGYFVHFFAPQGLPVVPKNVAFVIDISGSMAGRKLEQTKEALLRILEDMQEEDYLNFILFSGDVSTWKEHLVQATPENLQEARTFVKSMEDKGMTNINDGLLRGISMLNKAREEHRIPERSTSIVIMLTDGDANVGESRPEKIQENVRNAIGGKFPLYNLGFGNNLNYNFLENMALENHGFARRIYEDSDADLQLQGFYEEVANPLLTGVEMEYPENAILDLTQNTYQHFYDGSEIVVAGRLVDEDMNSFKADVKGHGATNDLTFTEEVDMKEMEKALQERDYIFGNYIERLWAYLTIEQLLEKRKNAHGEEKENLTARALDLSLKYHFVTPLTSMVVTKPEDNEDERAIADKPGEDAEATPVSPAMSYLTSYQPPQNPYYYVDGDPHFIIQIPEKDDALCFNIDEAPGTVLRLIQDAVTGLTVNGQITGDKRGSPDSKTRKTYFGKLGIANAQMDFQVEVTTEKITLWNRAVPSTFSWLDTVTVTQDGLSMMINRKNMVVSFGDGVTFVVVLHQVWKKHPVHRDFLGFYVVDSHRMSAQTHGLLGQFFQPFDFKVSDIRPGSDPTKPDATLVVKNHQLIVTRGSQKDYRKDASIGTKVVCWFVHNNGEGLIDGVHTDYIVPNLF
UniProt Q9Y4H2: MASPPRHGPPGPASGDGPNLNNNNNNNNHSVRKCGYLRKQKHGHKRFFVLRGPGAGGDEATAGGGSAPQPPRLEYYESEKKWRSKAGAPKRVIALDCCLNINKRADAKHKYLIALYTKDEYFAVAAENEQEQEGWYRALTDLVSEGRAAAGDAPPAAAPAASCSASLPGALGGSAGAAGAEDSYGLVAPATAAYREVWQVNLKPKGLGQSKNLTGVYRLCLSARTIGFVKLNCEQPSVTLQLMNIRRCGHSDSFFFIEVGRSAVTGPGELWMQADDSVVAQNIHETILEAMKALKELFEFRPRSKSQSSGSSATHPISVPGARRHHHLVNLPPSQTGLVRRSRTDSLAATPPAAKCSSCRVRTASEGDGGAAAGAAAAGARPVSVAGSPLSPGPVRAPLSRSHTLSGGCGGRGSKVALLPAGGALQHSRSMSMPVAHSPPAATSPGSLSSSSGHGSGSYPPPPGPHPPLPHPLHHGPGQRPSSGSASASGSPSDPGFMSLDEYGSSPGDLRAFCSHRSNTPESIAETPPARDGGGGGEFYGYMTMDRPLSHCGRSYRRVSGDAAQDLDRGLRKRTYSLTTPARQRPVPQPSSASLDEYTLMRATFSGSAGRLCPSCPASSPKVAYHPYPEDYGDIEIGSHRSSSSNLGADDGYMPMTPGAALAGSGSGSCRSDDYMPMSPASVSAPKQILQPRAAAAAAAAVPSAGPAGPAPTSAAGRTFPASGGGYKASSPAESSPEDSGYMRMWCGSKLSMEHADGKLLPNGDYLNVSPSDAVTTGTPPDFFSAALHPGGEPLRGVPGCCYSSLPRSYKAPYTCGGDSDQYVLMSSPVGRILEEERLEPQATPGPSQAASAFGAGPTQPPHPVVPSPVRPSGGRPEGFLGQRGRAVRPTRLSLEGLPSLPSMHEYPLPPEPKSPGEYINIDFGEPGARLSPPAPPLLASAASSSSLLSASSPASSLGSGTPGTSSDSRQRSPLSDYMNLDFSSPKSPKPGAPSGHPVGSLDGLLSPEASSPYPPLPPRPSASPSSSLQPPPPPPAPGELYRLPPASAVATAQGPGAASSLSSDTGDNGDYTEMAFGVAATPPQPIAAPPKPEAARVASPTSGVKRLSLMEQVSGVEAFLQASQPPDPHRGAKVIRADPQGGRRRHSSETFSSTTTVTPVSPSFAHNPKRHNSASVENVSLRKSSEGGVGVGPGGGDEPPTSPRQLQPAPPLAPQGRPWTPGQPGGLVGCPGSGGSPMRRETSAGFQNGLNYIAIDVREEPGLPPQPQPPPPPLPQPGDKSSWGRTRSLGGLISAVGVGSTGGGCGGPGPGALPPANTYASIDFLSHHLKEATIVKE
UniProt P0C870: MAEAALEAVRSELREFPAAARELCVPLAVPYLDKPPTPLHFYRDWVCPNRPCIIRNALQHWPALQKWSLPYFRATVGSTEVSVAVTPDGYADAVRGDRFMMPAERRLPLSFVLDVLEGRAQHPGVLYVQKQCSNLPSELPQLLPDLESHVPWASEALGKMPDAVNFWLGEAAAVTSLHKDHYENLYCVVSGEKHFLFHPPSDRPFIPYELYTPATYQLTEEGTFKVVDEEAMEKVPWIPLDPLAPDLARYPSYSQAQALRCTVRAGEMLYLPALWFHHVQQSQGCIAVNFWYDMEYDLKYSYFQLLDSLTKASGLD
UniProt Q9NQX7: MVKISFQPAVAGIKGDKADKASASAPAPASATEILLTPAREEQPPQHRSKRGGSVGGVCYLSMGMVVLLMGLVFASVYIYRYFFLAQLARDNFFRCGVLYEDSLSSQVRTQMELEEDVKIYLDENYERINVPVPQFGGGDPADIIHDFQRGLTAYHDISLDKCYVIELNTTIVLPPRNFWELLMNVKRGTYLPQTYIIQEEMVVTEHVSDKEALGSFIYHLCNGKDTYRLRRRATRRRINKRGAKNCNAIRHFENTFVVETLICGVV
UniProt Q9Y219: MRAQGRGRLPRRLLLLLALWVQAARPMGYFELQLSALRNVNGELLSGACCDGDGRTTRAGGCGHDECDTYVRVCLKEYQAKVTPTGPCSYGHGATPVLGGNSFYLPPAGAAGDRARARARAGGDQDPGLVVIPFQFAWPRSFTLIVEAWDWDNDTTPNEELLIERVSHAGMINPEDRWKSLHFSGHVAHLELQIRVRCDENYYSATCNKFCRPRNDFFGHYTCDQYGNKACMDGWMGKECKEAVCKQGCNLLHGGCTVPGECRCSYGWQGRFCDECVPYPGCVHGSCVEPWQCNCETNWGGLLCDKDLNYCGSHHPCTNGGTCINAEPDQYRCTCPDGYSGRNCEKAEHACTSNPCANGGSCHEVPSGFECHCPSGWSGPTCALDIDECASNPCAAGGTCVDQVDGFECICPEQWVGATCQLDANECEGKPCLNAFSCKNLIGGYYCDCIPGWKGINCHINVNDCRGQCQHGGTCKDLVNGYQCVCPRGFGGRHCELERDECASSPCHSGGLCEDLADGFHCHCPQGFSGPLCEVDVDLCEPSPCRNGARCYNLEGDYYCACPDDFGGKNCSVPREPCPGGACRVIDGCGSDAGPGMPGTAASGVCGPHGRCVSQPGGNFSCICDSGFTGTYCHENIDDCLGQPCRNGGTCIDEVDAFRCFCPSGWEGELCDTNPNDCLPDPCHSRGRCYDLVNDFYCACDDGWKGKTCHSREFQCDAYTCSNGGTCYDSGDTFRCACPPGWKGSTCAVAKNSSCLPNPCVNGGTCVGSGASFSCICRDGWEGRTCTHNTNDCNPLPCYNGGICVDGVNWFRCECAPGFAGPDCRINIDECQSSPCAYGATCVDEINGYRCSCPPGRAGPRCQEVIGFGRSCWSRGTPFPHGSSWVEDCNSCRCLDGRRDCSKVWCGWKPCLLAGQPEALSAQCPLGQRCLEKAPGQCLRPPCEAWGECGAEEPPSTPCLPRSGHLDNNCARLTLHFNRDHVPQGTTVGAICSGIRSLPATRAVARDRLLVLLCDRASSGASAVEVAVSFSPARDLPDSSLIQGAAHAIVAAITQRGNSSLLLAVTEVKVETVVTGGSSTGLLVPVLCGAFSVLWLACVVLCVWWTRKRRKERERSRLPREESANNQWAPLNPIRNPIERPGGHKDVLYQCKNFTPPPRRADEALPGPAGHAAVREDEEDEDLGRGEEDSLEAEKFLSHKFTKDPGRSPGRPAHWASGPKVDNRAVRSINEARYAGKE
UniProt Q8WZ19: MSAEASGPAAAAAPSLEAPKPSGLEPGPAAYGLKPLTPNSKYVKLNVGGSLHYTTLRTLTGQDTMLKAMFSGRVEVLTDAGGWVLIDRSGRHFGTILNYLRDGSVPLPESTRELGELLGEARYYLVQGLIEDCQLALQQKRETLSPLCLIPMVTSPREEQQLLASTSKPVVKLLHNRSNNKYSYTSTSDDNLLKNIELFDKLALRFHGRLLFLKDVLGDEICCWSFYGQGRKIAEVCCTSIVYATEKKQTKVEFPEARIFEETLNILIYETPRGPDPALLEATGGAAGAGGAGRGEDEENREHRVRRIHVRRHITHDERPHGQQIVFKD
UniProt Q674X7: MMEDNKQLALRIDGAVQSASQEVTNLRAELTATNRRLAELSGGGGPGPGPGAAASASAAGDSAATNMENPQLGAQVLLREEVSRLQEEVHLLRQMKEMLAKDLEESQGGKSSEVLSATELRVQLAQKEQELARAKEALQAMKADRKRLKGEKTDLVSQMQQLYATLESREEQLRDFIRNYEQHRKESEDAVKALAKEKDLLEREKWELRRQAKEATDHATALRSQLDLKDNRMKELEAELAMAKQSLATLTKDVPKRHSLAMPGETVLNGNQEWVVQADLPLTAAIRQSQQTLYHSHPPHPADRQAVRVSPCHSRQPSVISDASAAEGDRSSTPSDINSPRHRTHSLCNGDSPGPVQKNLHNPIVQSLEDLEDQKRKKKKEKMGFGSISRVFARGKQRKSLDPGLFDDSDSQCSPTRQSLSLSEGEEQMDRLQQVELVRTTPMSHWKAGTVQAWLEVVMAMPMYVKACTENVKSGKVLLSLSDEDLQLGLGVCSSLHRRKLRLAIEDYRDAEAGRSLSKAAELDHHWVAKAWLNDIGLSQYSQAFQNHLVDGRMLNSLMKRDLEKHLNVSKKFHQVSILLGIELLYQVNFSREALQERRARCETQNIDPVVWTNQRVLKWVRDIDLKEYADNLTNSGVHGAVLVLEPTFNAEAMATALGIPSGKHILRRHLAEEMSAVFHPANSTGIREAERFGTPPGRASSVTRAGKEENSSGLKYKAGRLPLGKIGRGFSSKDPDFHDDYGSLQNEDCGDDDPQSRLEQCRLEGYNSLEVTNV
UniProt Q14681: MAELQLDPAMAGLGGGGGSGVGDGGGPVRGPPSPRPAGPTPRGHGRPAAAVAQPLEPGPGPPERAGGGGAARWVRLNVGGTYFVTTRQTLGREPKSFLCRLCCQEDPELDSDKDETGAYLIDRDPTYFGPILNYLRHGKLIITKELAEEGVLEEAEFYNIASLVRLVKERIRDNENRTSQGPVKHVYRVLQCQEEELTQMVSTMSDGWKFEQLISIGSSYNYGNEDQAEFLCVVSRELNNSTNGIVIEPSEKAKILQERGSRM
UniProt Q8NA54: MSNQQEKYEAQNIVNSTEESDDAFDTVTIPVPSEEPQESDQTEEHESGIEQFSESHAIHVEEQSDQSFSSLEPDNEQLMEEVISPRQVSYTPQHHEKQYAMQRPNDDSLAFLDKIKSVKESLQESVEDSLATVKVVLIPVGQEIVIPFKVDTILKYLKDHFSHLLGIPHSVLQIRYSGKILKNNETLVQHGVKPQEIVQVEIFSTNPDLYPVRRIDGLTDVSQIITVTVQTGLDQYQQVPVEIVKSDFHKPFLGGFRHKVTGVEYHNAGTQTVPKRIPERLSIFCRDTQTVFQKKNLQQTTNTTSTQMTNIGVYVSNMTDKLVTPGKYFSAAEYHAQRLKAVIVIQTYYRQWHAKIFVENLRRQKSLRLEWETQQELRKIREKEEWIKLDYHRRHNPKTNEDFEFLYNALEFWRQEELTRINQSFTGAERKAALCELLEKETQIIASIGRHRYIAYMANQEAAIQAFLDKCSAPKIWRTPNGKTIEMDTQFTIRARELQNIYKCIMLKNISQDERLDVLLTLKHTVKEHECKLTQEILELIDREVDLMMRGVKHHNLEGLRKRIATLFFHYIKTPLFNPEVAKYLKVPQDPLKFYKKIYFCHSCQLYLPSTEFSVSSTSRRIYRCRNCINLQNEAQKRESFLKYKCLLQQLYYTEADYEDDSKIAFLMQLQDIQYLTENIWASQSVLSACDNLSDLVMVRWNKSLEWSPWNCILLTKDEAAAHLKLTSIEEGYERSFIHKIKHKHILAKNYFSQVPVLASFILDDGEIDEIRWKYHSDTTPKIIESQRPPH

Each target was assayed with C#Cc1cccc(Nc2ncnc3cc(OCCOC)c(OCCOC)cc23)c1 [erlotinib] (assay: log2 fold change, soluble protein after heating vs DMSO (PISA); higher = thermal stabilisation; K562 lysate, 10 uM; active = over 0.2 and 3.5 SD of the protein, either way, in both replicates (recomputed)).
Outline: (§1)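 Following dounce homogenisation of K562 pellets in PBS pH 7.4 with 1 mM MgCl2, crude extract at 1 mg/mL protein was incubated for 30 min with 10 μM compound. Aliquots were then heated for 3 min over 48°C-58°C and pooled, NP-40 was added to 0.5% at 4°C, and soluble protein was recovered as the supernatant at 21,000xg for 90 min. Channel-sum-equalised TMTpro 16plex LC-MS/MS quantified this protein. Each value, from duplicates, is a log-two fold change in thermal stability relative to solvent controls.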

log2 fold change, inactive:
JMY (UniProt Q8N9B5) 0.026
ISL2 (UniProt Q96A47) -0.149
IRF9 (UniProt Q00978) 0.055
ITPR2 (UniProt Q14571) 0.058
INTS6L (UniProt Q5JSJ4) 0.005
ITIH3 (UniProt Q06033) -0.113
ITPRIP (UniProt Q8IWB1) 0.218
IRS2 (UniProt Q9Y4H2) 0.04
ISG20 (UniProt Q96AZ6) -0.225
JMJD7 (UniProt P0C870) -0.012
KCNN4 (UniProt O15554) -0.034
KANSL2 (UniProt Q9H9L4) 0.021
KDM2B (UniProt Q8NHM5) 0.027
JUN (UniProt P05412) 0.037
KCNH2 (UniProt Q12809) -0.186
JOSD1 (UniProt Q15040) 0.045
ITM2C (UniProt Q9NQX7) -0.022
ITPR3 (UniProt Q14573) 0.165
JAG2 (UniProt Q9Y219) 0.006
KCTD13 (UniProt Q8WZ19) -0.195
ITPRID2 (UniProt P28290) -0.066
KAZN isoform 3 (UniProt Q674X7) -0.007
KANSL1 (UniProt Q7Z3B3) 0.098

What follows are targets tested with C/C(=N\NC(=O)C1=CC(=CC=C1)S(=O)(=O)N2CCOCC2)/C3=C(C=CC(=C3)Cl)O in the same assay as above.
Outline: as §1

log2 fold change, inactive:
ITFG2 (UniProt H0YGR0) 0.074
ITPR1 (UniProt Q14643) -0.115
ITIH2 (UniProt P19823) 0.05
KCTD2 (UniProt Q14681) -0.052
JAK1 (UniProt P23458) 0.027
ITGB1BP2 (UniProt Q9UKP3) 0.017
JAK3 (UniProt P52333) 0.037
IQUB (UniProt Q8NA54) -0.218
KANK2 isoform 2 (UniProt Q63ZY3) 0.305
INTU (UniProt Q9ULD6) -0.051
NA (UniProt J3KR12) -0.208

What follows are targets tested with C1=CC(=CC=C1C2=NC3=C(N2)C=C(C=C3)C(=O)N)OC4=CC=C(C=C4)Cl in the same assay as above.
Outline: as §1

log2 fold change, inactive:
JMY (UniProt Q8N9B5) -0.113
ISL2 (UniProt Q96A47) 0.003
IRF9 (UniProt Q00978) -0.129
ITPR2 (UniProt Q14571) 0.163
INTS6L (UniProt Q5JSJ4) 0.014
ITIH3 (UniProt Q06033) 0.076
ITPRIP (UniProt Q8IWB1) -0.16
IRS2 (UniProt Q9Y4H2) -0.099
ISG20 (UniProt Q96AZ6) 0.036
JMJD7 (UniProt P0C870) -0.005
KCNN4 (UniProt O15554) -0.135
KANSL2 (UniProt Q9H9L4) -0.136
KDM2B (UniProt Q8NHM5) 0.014
JUN (UniProt P05412) 0.008
KCNH2 (UniProt Q12809) 0.202
JOSD1 (UniProt Q15040) 0.101
ITM2C (UniProt Q9NQX7) -0.022
ITPR3 (UniProt Q14573) 0.16
JAG2 (UniProt Q9Y219) -0.184
KCTD13 (UniProt Q8WZ19) -0.018
ITPRID2 (UniProt P28290) 0.022
KAZN isoform 3 (UniProt Q674X7) 0.058
KANSL1 (UniProt Q7Z3B3) -0.012

These targets were tested with C1=CC2=C(C=CC(=C2)/C=C\3/C(=O)NC(=NCC4=CC=CS4)S3)N=C1 in the same assay as above.
Outline: as §1

log2 fold change, inactive:
ITFG2 (UniProt H0YGR0) -0.126
ITPR1 (UniProt Q14643) -0.206
ITIH2 (UniProt P19823) -0.047
KCTD2 (UniProt Q14681) -0.144
JAK1 (UniProt P23458) 0.11
ITGB1BP2 (UniProt Q9UKP3) -0.001
JAK3 (UniProt P52333) -0.075
IQUB (UniProt Q8NA54) -0.064
KANK2 isoform 2 (UniProt Q63ZY3) -0.127
INTU (UniProt Q9ULD6) -0.384
NA (UniProt J3KR12) -0.109

What follows are targets tested with C1=CC2=NC=CN=C2C=C1/C=C/3\C(=O)NC(=O)S3 in the same assay as above.
Outline: as §1

log2 fold change, inactive:
JMY (UniProt Q8N9B5) -0.272
ISL2 (UniProt Q96A47) 0.032
ITPR1 (UniProt Q14643) 0.048
ITIH2 (UniProt P19823) -0.013
KCTD2 (UniProt Q14681) 0.01
JAK1 (UniProt P23458) 0.185
JPT2 isoform 2 (UniProt Q9H910) 0.127
ITIH3 (UniProt Q06033) -0.033
JAK3 (UniProt P52333) -0.041
IRS2 (UniProt Q9Y4H2) 0.164
IQUB (UniProt Q8NA54) -0.267
ISG20 (UniProt Q96AZ6) 0.018
JMJD7 (UniProt P0C870) -0.148
ITM2C (UniProt Q9NQX7) 0.142
IQCD (UniProt Q96DY2) -0.367
JAG2 (UniProt Q9Y219) 0.026
KCTD13 (UniProt Q8WZ19) 0.324
ITPRID2 (UniProt P28290) 0.031
KAZN isoform 3 (UniProt Q674X7) 0.195
